From PubChem BioAssay AID588590 (National Center for Advancing Translational Sciences (NCATS), 2011)
Hit rate of the full screen: of about 390,000 compounds, about 4,000 (1%) were called active. The shares of active, inactive and inconclusive entries below differ from those in the screen. Calls follow the shape of the dose curve; as a rule, active = well fitted inhibition curve with a large enough effect; inconclusive = small, poorly fitted or top-dose-only effect, or another doubt; inactive = no such curve, though single readings can be large or run the other way. Potencies beside an inconclusive call are fits to weak or partial responses and may not hold up.

Amino acid sequences for entries named in this document (tags omitted). A change or cut given only in a name is not applied to a line headed by its entry.
UniProt Q9UNA4: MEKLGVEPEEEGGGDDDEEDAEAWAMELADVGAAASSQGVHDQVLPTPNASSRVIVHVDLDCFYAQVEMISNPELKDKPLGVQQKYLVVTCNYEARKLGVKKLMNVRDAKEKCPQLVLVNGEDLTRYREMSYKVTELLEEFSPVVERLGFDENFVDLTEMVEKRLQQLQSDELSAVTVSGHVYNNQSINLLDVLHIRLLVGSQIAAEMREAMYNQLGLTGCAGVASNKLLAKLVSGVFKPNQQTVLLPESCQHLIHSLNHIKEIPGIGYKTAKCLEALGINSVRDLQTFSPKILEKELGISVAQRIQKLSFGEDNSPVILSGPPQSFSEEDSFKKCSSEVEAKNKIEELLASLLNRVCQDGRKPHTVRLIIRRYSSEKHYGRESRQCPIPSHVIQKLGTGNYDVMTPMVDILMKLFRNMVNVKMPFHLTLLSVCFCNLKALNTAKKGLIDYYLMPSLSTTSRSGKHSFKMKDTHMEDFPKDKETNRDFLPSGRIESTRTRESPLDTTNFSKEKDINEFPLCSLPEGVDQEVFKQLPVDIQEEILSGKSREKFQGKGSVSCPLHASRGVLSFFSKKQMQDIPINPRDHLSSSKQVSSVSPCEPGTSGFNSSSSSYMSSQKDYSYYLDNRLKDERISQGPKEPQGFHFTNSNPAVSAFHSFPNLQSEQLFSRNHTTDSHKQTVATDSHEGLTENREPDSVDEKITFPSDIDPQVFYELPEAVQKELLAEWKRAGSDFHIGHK

target: DNA polymerase iota (Homo sapiens) (UniProt Q9UNA4); assay: qHTS for Inhibitors of Polymerase Iota; conditions: Pol iota fluorescent replication assay, 10 min; series mostly up to 115 µM; activity, negative = inhibition: at the top concentration
Summary of the method: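 Pol iota at 10 nM preincubated 15 min with compounds at room temperature; reaction started with fluorescent substrate, 50 nM final. Fluorescence read kinetically at 0 and 10 min; buffer-only wells as negative control.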
Potency is read from the fitted curve at half-maximal effect.

activity, negative = inhibition, inactive:
CC1CCN(C(=O)C(C)OC(=O)c2ccc(S(C)(=O)=O)c([N+](=O)[O-])c2)CC1 (stereo unspecified) -10.6%, O=C(c1ccccc1Cl)N1CCC(n2cccc2)CC1 1.52% [at 58.9 µM], CCc1ccc(-n2c(=O)c3cccnc3n2CC(=O)NCc2ccc(C)cc2)cc1 -4.4%, CCOC(=O)C1CCCN(c2cc(=O)n(C3CCCCC3)c(=O)[nH]2)C1 (stereo unspecified) -13.8%, O=C(O)c1cc(NS(=O)(=O)c2ccc(N3CCOCC3)c([N+](=O)[O-])c2)cc(C(=O)O)c1 7.41%, COc1cc(OC)c(N(C)C(=O)c2sc3nc4n(c(=O)c3c2C)CCCC4)cc1Cl 20.2%, CC(O)(c1ccccc1)[N+]1(CC(=O)c2ccccc2)C=CC=C1 (stereo unspecified) -11.2%, CC(NC(=O)Nn1cnnc1)(C(F)(F)F)C(F)(F)F 6.51%, COc1ccccc1-c1noc(-c2ccc(NC(C)C)c([N+](=O)[O-])c2)n1 -11.8%, NC(=O)NN=C1c2cc(S(=O)(=O)N3CCOCC3)ccc2-c2ccc(S(=O)(=O)N3CCOCC3)cc21 6.83%, COc1ccc2[nH]cc(S(=O)(=O)c3ccc(C)c(C)c3)c(=O)c2c1 34.1%, COCC1CCN(C(=O)C2CCC(=O)N(CCc3ccc(Cl)cc3)C2)CC1 (stereo unspecified) -23.2%, CCN(Cc1ccccc1)c1ccc(/C=C/c2nccc3ccccc23)cc1 4.19%, CCOC(=O)c1c(C)oc2nc(C)nc(NCc3ccccc3OC)c12 29.9%, Cc1ccc(CC(=O)NCCc2ccc(S(N)(=O)=O)cc2)cc1 -13.3%, CCOC(=O)C1=C(COC(=O)C(C)(C)Oc2ccc(Cl)cc2)NC(=O)NC1C (stereo unspecified) 0.77%, CCCNC(=O)c1ccc2snnc2c1 -5.42%, Cc1ccc(O)c(C(=O)c2cnn(C(=O)COc3ccc(Cl)cc3)c2)c1 14.2%, O=C(Cn1c(=O)oc2cc(S(=O)(=O)NCc3ccccc3)ccc21)NCc1ccc(Cl)cc1 -5.53%, CC(NC(=O)CCC(=O)Nc1ccccc1O)c1ccccc1 (stereo unspecified) 49.2%

Potency, inconclusive:
CCc1ccc(NC(=O)NNC(=O)c2cc3ccccc3cc2O)cc1 79.4 µM [inhibitor, partial curve, poor fit], CC1=C(C)CC2C(=O)N(Cc3ccccc3)C(=O)C2C1 (stereo unspecified) 39.8 µM [inhibitor, partial curve, poor fit], COc1ccccc1N1CCN(CC(O)COc2ccc(C)cc2C(C)(C)C)CC1 (stereo unspecified) 39.8 µM [inhibitor, single point], CCN1/C(=C/C=C/c2sc3ccccc3[n+]2CC)Sc2ccccc21 3.55 µM [inhibitor, partial curve, poor fit], CCOC(=O)c1c(S(=O)(=O)NCC2CCN(CCc3cccs3)CC2)c(C)n(C)c1C 89.1 µM [inhibitor, single point], CCOC(=O)c1cc2c(=O)n3ccccc3nc2n(Cc2ccco2)c1=NC(=O)c1ccc(OCC)cc1 56.2 µM [inhibitor, partial curve, poor fit], CCOc1cccc(C(=O)Nc2nnc(-c3ccco3)s2)c1 11.2 µM [inhibitor, full curve, poor fit], Oc1ccc(N=Cc2ccc(OCc3ccccc3)cc2)cc1 7.94 µM [inhibitor, full curve, poor fit], CC[N+]1(C)CCC(O)(/C=C/c2ccccc2)C(C(=O)/C=C/c2ccccc2)C1 (stereo unspecified) 25.1 µM [inhibitor, partial curve], Cc1ccc(SC(C)C(=O)Nc2ncn[nH]2)cc1 (stereo unspecified) 20 µM [inhibitor, single point], O=C1C2Sc3[nH]c(=O)sc3C(c3cc([N+](=O)[O-])ccc3O)C2C(=O)N1c1ccccc1 (stereo unspecified) 35.5 µM [inhibitor, partial curve, poor fit], O=S(=O)(Nc1cccc(-c2ccc(N3CCCCCC3)nn2)c1)c1ccc(C(F)(F)F)cc1 70.8 µM [inhibitor, single point], CC(=O)c1ccc2c3c(cccc13)C(=O)N(CCc1ccccc1)C2=O 31.6 µM [inhibitor, single point], COc1ccc(NC(=O)c2ccc3ccccc3n2)cc1S(=O)(=O)Nc1ccccc1Cl 79.4 µM [inhibitor, partial curve, poor fit], O=C(c1cc2cc([N+](=O)[O-])ccc2oc1=O)n1cccn1 44.7 µM [inhibitor, partial curve], O=C(OC1CCOC1=O)c1ccc(NS(=O)(=O)c2cccs2)cc1 (stereo unspecified) 56.2 µM [inhibitor, partial curve, poor fit], O=C(O)c1ccc(/C=C/c2nc3ccccc3c(=O)[nH]2)cc1 56.2 µM [inhibitor, partial curve, poor fit], CCc1nn2c(=O)cc(COC(=O)c3cc(Cl)c(OC)c(OC)c3)nc2s1 63.1 µM [inhibitor, partial curve, poor fit], O=C(O)c1cc(NN=C2c3ccccc3-c3ccccc32)ccc1Cl 22.4 µM [inhibitor, full curve], COc1ccc(NC(=O)CSc2nnc(CNC(=O)c3ccco3)o2)cc1 39.8 µM [inhibitor, partial curve, poor fit], CCOc1ccc(-n2c(=S)sc3c(=O)[nH]c(SCC(=O)C(C)(C)C)nc32)cc1 31.6 µM [inhibitor, partial curve], O=C(/C=C/c1ccco1)NC(=S)Nc1cccc(-c2nc3ccccc3s2)c1 1.12 µM [inhibitor, full curve, poor fit], Nc1ccccc1S(=O)(=O)NCCCCc1ccccc1 63.1 µM [inhibitor, single point], O=[N+]([O-])c1ccc(O)c(-c2nn[nH]n2)c1 3.55 µM [inhibitor, full curve, poor fit], COc1cc(NC(=O)COC(=O)c2ccc([N+](=O)[O-])s2)cc(OC)c1OC 56.2 µM [inhibitor, partial curve, poor fit], CCn1c(CCl)nc2cc(S(=O)(=O)N3CCOCC3)ccc21 89.1 µM [inhibitor, single point], CN(C)C(=O)COc1ncnc2sc(-c3ccccc3)cc12 25.1 µM [inhibitor, partial curve, poor fit], Cc1ccc(CN2C(=O)c3ccccc3Sc3ccc(C(=O)OCc4ccco4)cc32)cc1 39.8 µM [inhibitor, single point], Cc1ccccc1Cn1c2ccccc2c2cnn(CC(=O)NCc3ccco3)c(=O)c21 3.16 µM [inhibitor, full curve, poor fit], O=C(NNS(=O)(=O)c1ccccc1)c1cnn(-c2ccc(Cl)cc2)c1C(F)(F)F 70.8 µM [inhibitor, partial curve], COC(=O)c1ccc(-c2ccco2)n1Cc1nc(-c2ccc(OC)c(OC)c2)oc1C 39.8 µM [inhibitor, partial curve, poor fit], Cc1ccc(-n2nnnc2C(Cl)(Cl)c2nnnn2-c2ccc(C)cc2)cc1 2.82 µM [inhibitor, full curve, poor fit], O=C(CCCN1C(=O)/C(=C\c2cccs2)SC1=S)NNC(=O)c1ccncc1 22.4 µM [inhibitor, single point], O=C(/C=C/c1cccs1)NC(=S)Nc1ccc(S(=O)(=O)Nc2ccccc2C(F)(F)F)cc1 39.8 µM [inhibitor, partial curve], COc1ccc(C(=O)Nc2ccccc2C(=O)NC(Cc2ccc(O)cc2)C(=O)NNC(=O)c2ccc(C)cc2)cc1 (stereo unspecified) 22.4 µM [inhibitor, full curve, poor fit], Cc1ccc(C2C(C#N)=C(N)Oc3n[nH]c(-c4cccs4)c32)s1 (stereo unspecified) 2 µM [inhibitor, full curve, poor fit], Cc1ccc(SC(CC(=O)c2ccc(C)cc2)C(=O)O)cc1 (stereo unspecified) 12.6 µM [inhibitor, partial curve], CCOC(=O)Cc1cc(=O)n2[nH]c(-c3ccccc3)cc2n1 56.2 µM [inhibitor, partial curve, poor fit], Cc1cc(C)n2nc(C(=O)OCCOc3cccc(Br)c3)nc2n1 3.55 µM [inhibitor, partial curve, poor fit], CCOc1ccc(S(=O)(=O)Nc2ncn[nH]2)cc1 89.1 µM [inhibitor, single point], CC1=C(c2ccc(C)c(C)c2)S(=O)(=O)N=C1N1CCC(C(=O)NC(C)Cc2ccco2)CC1 (stereo unspecified) 79.4 µM [inhibitor, partial curve], c1ccc(CN2CCN(CCCNc3ccc4nnc(-c5ccccc5)n4n3)CC2)cc1 39.8 µM [inhibitor, single point], COc1ccc(-n2cccc2/C=C2\C(=N)N3N=C(c4ccco4)SC3=NC2=O)cc1 39.8 µM [inhibitor, partial curve, poor fit]

Potency, active:
O=C(NNC(=O)C1[C@H]2CCCC[C@@H]12)c1ccc(=O)oc1 (stereo partly specified) 22.4 µM, CC1CCN(C(=O)COC(=O)c2ccc([N+](=O)[O-])o2)CC1 50.1 µM, O=C(O)c1cccc(NC(=O)c2ccc3c(c2)C(=O)N(Cc2ccco2)C3=O)c1 50.1 µM
